Measured values taken from the supplement of paper PMC10849652.
The list shows a part of the results.

The chains behind the UniProt entries cited, without tags or fusion partners. Where a name states a change or a piece, a line headed by the entry shows the natural chain unless it says otherwise.
UniProt Q9UHL0: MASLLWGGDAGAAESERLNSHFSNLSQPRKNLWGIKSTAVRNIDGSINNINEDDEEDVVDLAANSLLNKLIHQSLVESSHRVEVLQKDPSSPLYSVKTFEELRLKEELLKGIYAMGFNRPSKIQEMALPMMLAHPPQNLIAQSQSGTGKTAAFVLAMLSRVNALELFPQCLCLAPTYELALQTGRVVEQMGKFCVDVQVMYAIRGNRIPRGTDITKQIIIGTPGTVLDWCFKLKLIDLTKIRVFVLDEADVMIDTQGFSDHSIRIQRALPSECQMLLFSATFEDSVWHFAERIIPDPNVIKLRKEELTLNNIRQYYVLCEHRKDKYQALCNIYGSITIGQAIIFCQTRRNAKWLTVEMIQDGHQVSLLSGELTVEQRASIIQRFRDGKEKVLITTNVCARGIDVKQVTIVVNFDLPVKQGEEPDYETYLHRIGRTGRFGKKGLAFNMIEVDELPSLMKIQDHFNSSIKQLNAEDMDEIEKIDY
UniProt Q8N5I4: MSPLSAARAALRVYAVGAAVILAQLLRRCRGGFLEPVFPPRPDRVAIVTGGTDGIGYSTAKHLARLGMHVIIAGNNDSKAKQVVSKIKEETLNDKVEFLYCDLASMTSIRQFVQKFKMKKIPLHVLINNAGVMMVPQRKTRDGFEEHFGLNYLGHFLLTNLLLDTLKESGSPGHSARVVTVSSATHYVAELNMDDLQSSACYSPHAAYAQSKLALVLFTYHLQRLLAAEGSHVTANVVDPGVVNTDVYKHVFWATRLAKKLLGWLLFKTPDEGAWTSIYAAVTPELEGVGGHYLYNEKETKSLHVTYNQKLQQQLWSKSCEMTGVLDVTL
UniProt Q9H5Z1: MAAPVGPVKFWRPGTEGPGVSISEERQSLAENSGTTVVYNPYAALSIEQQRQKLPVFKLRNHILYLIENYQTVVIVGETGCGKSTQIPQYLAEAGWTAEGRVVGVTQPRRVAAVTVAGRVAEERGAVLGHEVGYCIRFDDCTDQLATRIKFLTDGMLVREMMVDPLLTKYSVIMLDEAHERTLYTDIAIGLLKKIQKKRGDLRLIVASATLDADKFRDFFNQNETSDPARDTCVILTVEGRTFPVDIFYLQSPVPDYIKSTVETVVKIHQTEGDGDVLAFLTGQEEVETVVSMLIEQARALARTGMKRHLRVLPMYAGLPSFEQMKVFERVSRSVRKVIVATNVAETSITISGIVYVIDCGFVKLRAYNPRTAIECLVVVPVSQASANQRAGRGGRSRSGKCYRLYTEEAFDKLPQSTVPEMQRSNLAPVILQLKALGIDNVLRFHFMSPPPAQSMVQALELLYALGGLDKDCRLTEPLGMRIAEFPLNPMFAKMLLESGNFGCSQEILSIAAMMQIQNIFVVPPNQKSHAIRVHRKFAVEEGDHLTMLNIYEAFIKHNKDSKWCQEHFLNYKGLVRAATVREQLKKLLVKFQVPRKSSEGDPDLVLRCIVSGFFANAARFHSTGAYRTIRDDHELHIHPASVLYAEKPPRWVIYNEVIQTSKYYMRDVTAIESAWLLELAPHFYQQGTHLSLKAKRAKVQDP
UniProt Q96HY7: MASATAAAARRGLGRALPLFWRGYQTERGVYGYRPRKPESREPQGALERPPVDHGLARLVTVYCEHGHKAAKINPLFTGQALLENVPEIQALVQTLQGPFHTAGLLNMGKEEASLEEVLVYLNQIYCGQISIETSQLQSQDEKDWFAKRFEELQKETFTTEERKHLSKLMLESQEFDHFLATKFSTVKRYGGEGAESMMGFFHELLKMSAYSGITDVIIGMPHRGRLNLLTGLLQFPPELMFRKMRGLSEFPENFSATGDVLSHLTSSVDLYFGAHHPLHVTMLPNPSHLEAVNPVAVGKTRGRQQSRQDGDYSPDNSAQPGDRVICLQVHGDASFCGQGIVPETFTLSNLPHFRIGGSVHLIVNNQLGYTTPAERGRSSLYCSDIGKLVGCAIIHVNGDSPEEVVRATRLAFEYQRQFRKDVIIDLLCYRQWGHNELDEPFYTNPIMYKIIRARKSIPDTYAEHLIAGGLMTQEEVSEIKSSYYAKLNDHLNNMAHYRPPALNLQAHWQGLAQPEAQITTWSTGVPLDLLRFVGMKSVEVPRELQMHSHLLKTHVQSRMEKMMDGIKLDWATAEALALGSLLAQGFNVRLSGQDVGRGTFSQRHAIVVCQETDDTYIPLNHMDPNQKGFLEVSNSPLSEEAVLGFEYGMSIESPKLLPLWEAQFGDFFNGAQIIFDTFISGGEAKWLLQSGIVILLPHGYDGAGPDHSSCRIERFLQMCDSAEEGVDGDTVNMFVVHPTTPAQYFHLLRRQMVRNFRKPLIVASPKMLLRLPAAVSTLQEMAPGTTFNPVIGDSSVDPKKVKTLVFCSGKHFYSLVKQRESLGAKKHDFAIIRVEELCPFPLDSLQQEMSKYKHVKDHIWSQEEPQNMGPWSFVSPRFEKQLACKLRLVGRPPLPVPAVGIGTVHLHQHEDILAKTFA
UniProt Q8TDJ6, whole entry, looked up: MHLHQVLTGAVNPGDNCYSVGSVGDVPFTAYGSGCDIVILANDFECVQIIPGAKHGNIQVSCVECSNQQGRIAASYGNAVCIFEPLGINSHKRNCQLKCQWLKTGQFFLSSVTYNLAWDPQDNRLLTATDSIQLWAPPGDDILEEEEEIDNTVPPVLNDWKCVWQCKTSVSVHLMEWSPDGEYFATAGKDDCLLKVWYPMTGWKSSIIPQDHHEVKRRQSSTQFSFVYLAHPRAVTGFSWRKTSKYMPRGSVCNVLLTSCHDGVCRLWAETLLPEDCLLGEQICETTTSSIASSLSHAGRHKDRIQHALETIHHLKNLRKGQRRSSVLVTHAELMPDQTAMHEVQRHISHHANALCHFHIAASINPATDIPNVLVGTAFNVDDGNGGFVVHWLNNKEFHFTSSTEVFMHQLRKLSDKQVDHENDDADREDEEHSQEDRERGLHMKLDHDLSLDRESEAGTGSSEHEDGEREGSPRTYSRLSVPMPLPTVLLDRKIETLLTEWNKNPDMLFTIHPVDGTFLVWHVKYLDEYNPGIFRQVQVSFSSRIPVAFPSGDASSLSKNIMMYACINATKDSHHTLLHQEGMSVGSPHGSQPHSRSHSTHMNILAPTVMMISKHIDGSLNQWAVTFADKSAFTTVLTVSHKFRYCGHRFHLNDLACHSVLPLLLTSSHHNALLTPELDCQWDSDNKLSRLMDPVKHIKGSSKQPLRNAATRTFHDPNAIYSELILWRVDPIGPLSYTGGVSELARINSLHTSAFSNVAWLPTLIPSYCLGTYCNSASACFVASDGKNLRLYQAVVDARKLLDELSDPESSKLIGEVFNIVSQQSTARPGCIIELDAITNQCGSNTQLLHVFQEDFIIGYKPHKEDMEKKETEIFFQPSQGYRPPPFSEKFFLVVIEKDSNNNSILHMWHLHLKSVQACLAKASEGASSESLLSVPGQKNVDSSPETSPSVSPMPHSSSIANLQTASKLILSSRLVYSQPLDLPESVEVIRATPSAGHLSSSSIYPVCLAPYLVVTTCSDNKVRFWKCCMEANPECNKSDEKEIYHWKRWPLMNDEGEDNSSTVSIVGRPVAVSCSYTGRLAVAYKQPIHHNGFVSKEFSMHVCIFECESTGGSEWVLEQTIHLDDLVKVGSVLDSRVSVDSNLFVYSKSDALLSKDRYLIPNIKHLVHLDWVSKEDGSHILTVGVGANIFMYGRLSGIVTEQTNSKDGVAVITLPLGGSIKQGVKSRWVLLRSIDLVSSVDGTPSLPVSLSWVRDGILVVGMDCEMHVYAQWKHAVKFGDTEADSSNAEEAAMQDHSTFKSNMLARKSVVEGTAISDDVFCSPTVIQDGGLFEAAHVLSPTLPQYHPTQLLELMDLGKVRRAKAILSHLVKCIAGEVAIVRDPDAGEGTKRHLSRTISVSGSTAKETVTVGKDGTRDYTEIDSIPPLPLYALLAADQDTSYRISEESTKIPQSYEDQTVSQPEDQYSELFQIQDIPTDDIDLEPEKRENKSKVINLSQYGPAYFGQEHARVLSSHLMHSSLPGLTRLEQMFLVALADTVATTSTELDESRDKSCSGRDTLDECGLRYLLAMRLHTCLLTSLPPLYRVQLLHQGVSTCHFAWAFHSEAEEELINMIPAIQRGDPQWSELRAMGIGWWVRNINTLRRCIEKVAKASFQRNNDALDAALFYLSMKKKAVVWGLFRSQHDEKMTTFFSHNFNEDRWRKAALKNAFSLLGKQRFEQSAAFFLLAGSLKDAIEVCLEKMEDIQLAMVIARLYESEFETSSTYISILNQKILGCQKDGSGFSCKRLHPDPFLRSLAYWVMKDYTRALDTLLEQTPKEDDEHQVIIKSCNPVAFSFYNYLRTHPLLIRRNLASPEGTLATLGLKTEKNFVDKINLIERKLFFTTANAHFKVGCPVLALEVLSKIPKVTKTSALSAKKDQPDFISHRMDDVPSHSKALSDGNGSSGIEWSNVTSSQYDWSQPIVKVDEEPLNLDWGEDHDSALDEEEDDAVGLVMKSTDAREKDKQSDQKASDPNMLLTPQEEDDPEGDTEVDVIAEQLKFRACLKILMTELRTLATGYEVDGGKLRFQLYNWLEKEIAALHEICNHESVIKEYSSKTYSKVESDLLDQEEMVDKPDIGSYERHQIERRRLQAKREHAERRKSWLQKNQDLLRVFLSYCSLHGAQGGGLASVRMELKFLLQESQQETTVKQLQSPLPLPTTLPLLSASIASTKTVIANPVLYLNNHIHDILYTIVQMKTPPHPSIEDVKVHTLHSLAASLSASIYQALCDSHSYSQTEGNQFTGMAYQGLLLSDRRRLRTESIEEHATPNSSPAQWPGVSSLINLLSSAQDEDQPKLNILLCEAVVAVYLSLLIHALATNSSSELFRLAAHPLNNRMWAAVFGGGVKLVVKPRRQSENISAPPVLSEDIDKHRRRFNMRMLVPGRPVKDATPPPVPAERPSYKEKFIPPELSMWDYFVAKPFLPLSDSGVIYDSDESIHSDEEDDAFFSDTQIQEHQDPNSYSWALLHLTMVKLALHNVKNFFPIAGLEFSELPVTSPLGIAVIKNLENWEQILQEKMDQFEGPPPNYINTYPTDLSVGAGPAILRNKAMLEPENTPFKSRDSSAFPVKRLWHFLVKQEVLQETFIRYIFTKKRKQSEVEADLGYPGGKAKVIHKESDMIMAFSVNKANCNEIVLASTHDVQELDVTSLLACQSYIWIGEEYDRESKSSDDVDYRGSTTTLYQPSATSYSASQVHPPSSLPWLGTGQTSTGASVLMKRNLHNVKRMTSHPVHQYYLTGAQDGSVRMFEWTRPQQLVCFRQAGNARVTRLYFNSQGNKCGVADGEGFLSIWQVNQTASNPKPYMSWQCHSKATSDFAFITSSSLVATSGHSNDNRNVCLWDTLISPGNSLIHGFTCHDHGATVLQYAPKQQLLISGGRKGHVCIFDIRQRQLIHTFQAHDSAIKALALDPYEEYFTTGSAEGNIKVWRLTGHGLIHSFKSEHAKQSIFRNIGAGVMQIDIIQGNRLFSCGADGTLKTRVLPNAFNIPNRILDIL
UniProt Q86XP3: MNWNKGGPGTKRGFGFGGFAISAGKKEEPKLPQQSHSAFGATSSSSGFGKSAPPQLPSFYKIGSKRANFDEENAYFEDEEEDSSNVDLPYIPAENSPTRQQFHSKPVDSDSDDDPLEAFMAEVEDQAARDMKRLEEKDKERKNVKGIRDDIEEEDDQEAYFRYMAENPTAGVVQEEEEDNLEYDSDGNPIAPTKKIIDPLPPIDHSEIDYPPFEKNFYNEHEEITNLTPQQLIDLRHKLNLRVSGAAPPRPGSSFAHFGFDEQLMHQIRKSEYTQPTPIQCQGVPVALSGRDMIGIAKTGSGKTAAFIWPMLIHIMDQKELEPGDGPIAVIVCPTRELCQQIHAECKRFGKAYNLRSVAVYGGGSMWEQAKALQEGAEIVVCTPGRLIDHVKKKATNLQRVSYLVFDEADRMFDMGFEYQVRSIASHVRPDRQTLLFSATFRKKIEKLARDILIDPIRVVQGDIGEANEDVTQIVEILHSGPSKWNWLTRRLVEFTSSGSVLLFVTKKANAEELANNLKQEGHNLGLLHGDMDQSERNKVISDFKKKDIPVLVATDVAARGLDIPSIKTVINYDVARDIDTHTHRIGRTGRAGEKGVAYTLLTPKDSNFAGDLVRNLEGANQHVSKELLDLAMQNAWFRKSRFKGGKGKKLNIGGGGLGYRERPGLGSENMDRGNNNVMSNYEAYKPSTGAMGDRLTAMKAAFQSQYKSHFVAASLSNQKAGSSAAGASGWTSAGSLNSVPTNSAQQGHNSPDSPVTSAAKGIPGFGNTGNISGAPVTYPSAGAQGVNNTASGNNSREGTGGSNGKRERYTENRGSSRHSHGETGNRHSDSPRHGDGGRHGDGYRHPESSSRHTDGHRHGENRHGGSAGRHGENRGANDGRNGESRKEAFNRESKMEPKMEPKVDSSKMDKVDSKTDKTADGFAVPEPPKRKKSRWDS
UniProt Q6ICB0: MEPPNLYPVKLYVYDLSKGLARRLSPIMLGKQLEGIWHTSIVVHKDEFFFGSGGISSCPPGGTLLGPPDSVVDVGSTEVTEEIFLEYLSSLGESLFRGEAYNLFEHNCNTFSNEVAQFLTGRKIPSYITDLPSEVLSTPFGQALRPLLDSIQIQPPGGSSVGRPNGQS

Columns and labels:
Assay in all cases: log2 fold change, soluble protein after heating vs DMSO (PISA); higher = thermal stabilisation; K562 cells, 10 uM, 30 min; active = over 0.2 and 3.5 SD of the protein, either way, in both replicates (recomputed)
[1] = compound: NC(=O)Nc1cc(-c2cccc(F)c2)sc1C(=O)N[C@H]1CCCNC1
In short: (§1)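 Soluble protein was quantified by TMTpro 16plex LC-MS/MS after channel sums were equalised. It was obtained as the supernatant after 21,000xg for 90 min from pooled aliquots of K562 cells (2×10^6 cells/mL, 10 μM compound, 30 min) heated for 3 min across 48°C-58°C and extracted in PBS with 0.5% NP-40 at 4°C. Thermal stability values are relative to control samples and come from duplicates. They are given as log2 fold changes.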

[2] = compound: NC1(c2ccc(-c3nc4ccn5c(=O)[nH]nc5c4cc3-c3ccccc3)cc2)CCC1
In short: as §1

[3] = compound: NCC(=O)Nc1ccc(-n2nc(C(F)(F)F)cc2-c2ccc3c(ccc4ccccc43)c2)cc1
In short: as §1

entinostat = compound: Nc1ccccc1NC(=O)c1ccc(CNC(=O)OCc2cccnc2)cc1 [entinostat]
In short: as §1

silmitasertib = compound: O=C(O)c1ccc2c(c1)nc(Nc1cccc(Cl)c1)c1ccncc12 [silmitasertib]
In short: as §1

[4] = compound: O=C1NC(=O)C(c2cnc3ccccn23)=C1c1cn2c3c(cc(F)cc13)CN(C(=O)N1CCCCC1)CC2
In short: as §1

[5] = compound: NC(=O)c1cnc(N[C@@H]2CCCC[C@@H]2N)nc1Nc1cccc(-n2nccn2)c1
In short: as §1

citarinostat = compound: O=C(CCCCCCNC(=O)c1cnc(N(c2ccccc2)c2ccccc2Cl)nc1)NO [citarinostat]
In short: as §1

[6] = compound: c1cc(OCCN2CCCCC2)cc(-c2n[nH]c3ccc(-c4nnc[nH]4)cc23)c1
In short: as §1

vorinostat = compound: O=C(CCCCCCC(=O)Nc1ccccc1)NO [vorinostat]
In short: as §1

Measured: log2 fold change

DGKA (UniProt P23743)
inactive: [1] 0.065 | [2] -0.109 | [3] 0.039 | entinostat 0.11 | silmitasertib 0.285 | [4] -0.164

DDX25 (UniProt Q9UHL0)
inactive: [5] 0.197 | [2] -0.105 | [3] 0.367 | citarinostat 0.201 | silmitasertib 0.018 | [6] -0.024

DLK1 (UniProt P80370)
inactive: [3] -0.061 | citarinostat -0.018 | [4] -0.109 | [6] -0.203

DDAH1 (UniProt O94760)
inactive: [5] -0.043 | [2] -0.03 | [3] -0.007 | vorinostat 0.069 | citarinostat 0.08 | silmitasertib -0.012 | [6] -0.011

DMBT1 isoform 6 (UniProt Q9UGM3)
inactive: [1] 1.04 | [2] 0 | entinostat -0.026 | silmitasertib 0.256 | [4] -0.073

DEF8 (UniProt Q6ZN54)
inactive: [5] -0.12 | [3] 0.22

DET1 isoform 2 (UniProt Q7L5Y6)
inactive: [2] 0.001 | silmitasertib 0.043

DDX55 (UniProt Q8NHQ9)
inactive: [1] 0.065 | [3] 0.086 | entinostat 0.126 | citarinostat -0.215 | [6] 0.053

DDX46, A0A0C4DG89
inactive: [2] -0.177 | silmitasertib -0.288 | [4] -0.148

DHRSX (UniProt Q8N5I4)
inactive: [5] 0.017 | [2] -0.115 | [3] -0.088 | vorinostat -0.038 | silmitasertib -0.091

DNA2 (UniProt P51530)
inactive: [1] 0.317 | [3] -0.071 | entinostat 0.017 | vorinostat -0.05 | citarinostat -0.021 | [4] 0.093 | [6] -0.126

DHX35 (UniProt Q9H5Z1)
inactive: [4] -0.23

DDHD1 (UniProt Q8NEL9)
inactive: [1] 0.173 | entinostat -0.077 | vorinostat 0.009

DENND1C (UniProt Q8IV53)
inactive: [1] 0.049 | [3] 0.089 | entinostat -0.097

DECR1 (UniProt E5RJD2)
inactive: [2] -0.075 | vorinostat -0.045 | silmitasertib -0.243

DHPS (UniProt M0R1T2)
inactive: [1] 0.063 | entinostat 0.072

DHX37 (UniProt Q8IY37)
inactive: [5] 0.016 | [4] 0.088

DESI2 (UniProt Q9BSY9)
inactive: [1] 0.016 | entinostat 0.029 | citarinostat 0.103 | [6] -0.089

DDR1 isoform 5 (UniProt Q08345)
inactive: [3] -0.1 | vorinostat 0.304 | [4] -0.003

DMKN (UniProt Q6E0U4)
inactive: [2] 0.016 | [3] 0.267 | citarinostat -0.279 | silmitasertib 0.127 | [6] 0.173

DNAH10 (UniProt Q8IVF4)
inactive: [1] 0.057 | [2] -0.045 | [3] 0.026 | entinostat -0.041 | vorinostat 0.083 | citarinostat 0.242 | silmitasertib -0.101 | [4] -0.102 | [6] 0.172

DHTKD1 (UniProt Q96HY7)
inactive: citarinostat 0.099 | [4] 0.033 | [6] 0.014

DEF6 (UniProt Q9H4E7)
inactive: [2] 0.016 | silmitasertib 0.079 | [4] 0.237

DDB1 isoform 2 (UniProt Q16531)
inactive: [1] -0.295 | entinostat -0.237 | vorinostat -0.032 | citarinostat -0.203 | [4] -0.09 | [6] -0.12

Reprinted from the results shown (two entries):
DHTKD1 (UniProt Q96HY7)
inactive: citarinostat 0.099 | [4] 0.033 | [6] 0.014

DEF6 (UniProt Q9H4E7)
inactive: [2] 0.016 | silmitasertib 0.079 | [4] 0.237

(continued)

DHX32 (UniProt Q7L7V1)
inactive: citarinostat 0.204 | [4] -0.163 | [6] -0.463

DKK4 (UniProt Q9UBT3)
inactive: vorinostat -2.08

DNAH5 (UniProt Q8TE73)
inactive: [1] -0.029 | [2] -0.077 | [3] 0.016 | entinostat -0.037 | vorinostat -0.103 | citarinostat 0.047 | silmitasertib 0.001 | [4] 0.014 | [6] 0.029

DMTF1 (UniProt Q9Y222)
inactive: [1] -0.131 | [5] 0.091 | [3] 0.097 | entinostat -0.044 | vorinostat 0.34

DMXL2 isoform 3 (UniProt Q8TDJ6)
inactive: [1] -0.077 | [5] -0.123 | [3] -0.323 | entinostat 0.079 | vorinostat -0.182 | [4] 0.026

DDX42 (UniProt Q86XP3)
inactive: [1] -0.102 | [5] 0.186 | entinostat -0.047 | vorinostat 0.155 | citarinostat 0.043 | [4] -0.211 | [6] 0.004

DESI1 (UniProt Q6ICB0)
inactive: [5] -0.034 | [3] -0.096 | citarinostat 0.092 | [6] -0.179

DLC1 (UniProt Q96QB1)
inactive: [2] 0.136 | [3] 0.002 | vorinostat -0.102 | citarinostat -0.101 | silmitasertib -0.03 | [4] -0.088 | [6] -0.052
